Experiment: 2H-NMR quadrupolar splitting of deuterium in D2O with the peptide complex as alignment medium
Format: physicochemical
Conditions: 8 mg/mL, 10% (v/v) D2O, 298 K; for quadrupole coupling: crystal (final self-assembled state)

With “(D)Trp-(L)Trp-(D)Trp-(L)Tre-(D)Trp-(L)Trp [Example 1]” the quadrupole coupling was “not observed at all” and the 2H quadrupolar splitting (self-assembled 1D intermediate state) was 1.74 Hz.

In the case of “PEGylated (L)Trp-(L)Trp-(L)Trp-(L)Trp-(L)Trp-(L)Trp [Comparative Example 1]”, the quadrupole coupling was “not observed at all”.

— patent US11952433B2, “Heterochiral peptide-complex and composition for measuring nuclear magnetic resonance spectroscopy residual dipolar coupling containing self-assembled intermediates of heterochiral peptide-complex” (INDUSTRY-ACADEMIC COOPERATION FOUNDATION, YONSEI UNIVERSITY, priority 2020, dated 2024)
